Reference: PubChem BioAssay AID1508587 (Peter MacCallum Cancer Centre, 2020)

Aim: 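Follow-up of vemurafenib sensitisers scored by lactate made per cell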 (follow-up of hits)
Cell system: human WM266.4 melanoma cells with a BRAF V600 mutation
Reagent: single siRNA against human genes, 25 nM
Time to read-out: 96 h
Challenge: vemurafenib 300 nM (about IC25), given 48 h after transfection for 48 h
Measured: 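Per-cell lactate from absorbance divided by DAPI nucleus counts, compared with and without vemurafenib, relative to non-targeting siRNA, mean of 2 replicates; nuclear counts also give cell number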
Scale: lactate per cell, drug vs no drug: higher = less drug-induced drop in lactate per cell; lactate per cell with vemurafenib: higher = more lactate per cell under drug; lactate per cell without drug: higher = more lactate per cell without drug; cell growth with vemurafenib and cell growth without drug: higher = more cell growth over 48 h
Rule for the call: 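a duplex is active when its lactate-per-cell ratio with versus without drug falls under 0.55, i.e. 2 SD below non-targeting; a gene is confirmed if 2 or more of 4 duplexes pass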
This is one part, drawn at random, of about 1,600 reagents tested. Over the whole deposit, 623 (39%) got an active call. 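Calls are for each duplex; lactate ratios contain extreme outliers.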 Unmarked entries are inactive. The numbers tell different reagents against one gene apart.

Gene | siRNA no. | lactate per cell, drug vs no drug | lactate per cell with vemurafenib | lactate per cell without drug | cell growth with vemurafenib | cell growth without drug
GALNT2 (GeneID 2590) | 1 | 0.49 (active) | 0.86 | 1.15 | 0.8 | 0.89
GALNT2 (GeneID 2590) | 2 | 0.57 | 1.6 | 1.82 | 0.62 | 0.41
GALNT2 (GeneID 2590) | 3 | 0.47 (active) | 0.56 | 0.78 | 1.07 | 1.3
GALNT2 (GeneID 2590) | 4 | 0.44 (active) | 2.29 | 3.44 | -0.08 | -0.12
BRIP1 (GeneID 83990) | 1 | 0.52 (active) | 1.23 | 1.61 | 0.21 | 0.27
BRIP1 (GeneID 83990) | 2 | 0.5 (active) | 0.82 | 1.12 | 0.51 | 0.16
BRIP1 (GeneID 83990) | 3 | 0.55 | 1.48 | 1.75 | 0.1 | 0.14
BRIP1 (GeneID 83990) | 4 | 0.57 | 1.19 | 1.36 | 0.31 | 0.36
CD2AP (GeneID 23607) | 1 | 0.68 | 1.02 | 0.94 | 0.25 | 0.54
CD2AP (GeneID 23607) | 2 | 0.68 | 0.87 | 0.8 | 0.73 | 1.09
CD2AP (GeneID 23607) | 3 | 0.55 | 1.25 | 1.43 | 0.36 | 0.31
CD2AP (GeneID 23607) | 4 | 0.54 (active) | 1.4 | 1.61 | 0.64 | 0.49
LRRC34 (GeneID 151827) | 1 | 0.6 | 0.86 | 0.97 | 1.19 | 1.1
LRRC34 (GeneID 151827) | 2 | 0.36 (active) | 0.54 | 1.02 | 0.05 | 0.01
LRRC34 (GeneID 151827) | 3 | 0.7 | 1.17 | 1.14 | 0.89 | 0.68
LRRC34 (GeneID 151827) | 4 | 0.58 | 1.32 | 1.54 | 0.64 | 0.59
CPLANE1 (GeneID 65250) | 1 | 0.7 | 1.5 | 1.52 | 0.08 | 0.37
CPLANE1 (GeneID 65250) | 2 | 0.46 (active) | 1.09 | 1.69 | 0.26 | 0.27
CPLANE1 (GeneID 65250) | 3 | 0.67 | 1.33 | 1.43 | 0.73 | 0.68
CPLANE1 (GeneID 65250) | 4 | 0.68 | 1.18 | 1.22 | 0.25 | 0.23
GLYR1 (GeneID 84656) | 1 | 0.78 | 1.04 | 0.87 | 0.84 | 0.87
GLYR1 (GeneID 84656) | 2 | 0.63 | 0.85 | 0.88 | 0.76 | 1.02
GLYR1 (GeneID 84656) | 3 | 0.72 | 0.9 | 0.81 | 0.57 | 0.89
GLYR1 (GeneID 84656) | 4 | 0.82 | 1.09 | 0.9 | 1.05 | 1.63
PHEX (GeneID 5251) | 1 | 0.7 | 1.4 | 1.25 | 0.51 | 0.69
PHEX (GeneID 5251) | 2 | 0.45 (active) | 0.43 | 0.62 | 0.42 | 0.79
PHEX (GeneID 5251) | 3 | 0.62 | 2.15 | 2.27 | 0.25 | 0.22
PHEX (GeneID 5251) | 4 | 0.68 | 2.91 | 2.73 | 0.18 | 0.14
ZBTB38 (GeneID 253461) | 1 | 0.57 | 1.38 | 157 | -0.04 | -0.09
ZBTB38 (GeneID 253461) | 2 | 0.6 | 1.21 | 1.44 | 0.66 | 0.52
ZBTB38 (GeneID 253461) | 3 | 0.88 | 1.54 | 1.23 | 0.65 | 0.77
ZBTB38 (GeneID 253461) | 4 | 0.49 (active) | 2.57 | 3.58 | -0.03 | -0.1
AXL (GeneID 558) | 1 | 0.62 | 0.86 | 0.88 | 0.78 | 0.77
AXL (GeneID 558) | 2 | 0.61 | 1.38 | 1.42 | 0.19 | 0.21
AXL (GeneID 558) | 3 | 0.41 (active) | 0.6 | 0.93 | 0.66 | 0.72
AXL (GeneID 558) | 4 | 0.54 (active) | 0.54 | 0.64 | 0.82 | 1.02
NES (GeneID 10763) | 1 | 1.23 | 2.13 | 1.26 | -0.27 | 0.21
NES (GeneID 10763) | 2 | 0.41 (active) | 0.73 | 1.27 | 0.04 | 0.03
NES (GeneID 10763) | 3 | 0.68 | 1.8 | 1.9 | 0.31 | 0.33
NES (GeneID 10763) | 4 | 0.58 | 1.8 | 2.25 | 0.3 | 0.09
TCF3 (GeneID 6929) | 1 | 0.62 | 2.26 | 2.36 | 0.11 | 0.02
TCF3 (GeneID 6929) | 2 | 0.64 | 2.65 | 2.72 | 0.2 | 0.09
TCF3 (GeneID 6929) | 3 | 0.54 (active) | 0.93 | 1.17 | 0.33 | 0.37
TCF3 (GeneID 6929) | 4 | 0.55 | 1.08 | 1.3 | 0.64 | 0.44
H2BC14 (GeneID 8342) | 1 | 0.31 (active) | 0.52 | 1.12 | 0.16 | 0.29
H2BC14 (GeneID 8342) | 2 | 0.84 | 4.18 | 3.5 | -0.03 | 0
H2BC14 (GeneID 8342) | 3 | 0.76 | 1.51 | 1.34 | 0.5 | 0.56
H2BC14 (GeneID 8342) | 4 | 0.6 | 0.94 | 1.05 | 0.93 | 1.03
CARD14 (GeneID 79092) | 1 | 0.61 | 6 | 6.78 | -0.12 | -0.14
CARD14 (GeneID 79092) | 2 | 0.58 | 0.92 | 1.09 | 0.35 | 0.44
CARD14 (GeneID 79092) | 3 | 0.44 (active) | 0.7 | 1.06 | 0.71 | 0.61
CARD14 (GeneID 79092) | 4 | 0.98 | 3.66 | 2.57 | 0.13 | 0.1

Entries listed so far whose target name starts with N or n (4):
Gene | siRNA no. | lactate per cell, drug vs no drug | lactate per cell with vemurafenib | lactate per cell without drug | cell growth with vemurafenib | cell growth without drug
NES (GeneID 10763) | 1 | 1.23 | 2.13 | 1.26 | -0.27 | 0.21
NES (GeneID 10763) | 2 | 0.41 (active) | 0.73 | 1.27 | 0.04 | 0.03
NES (GeneID 10763) | 3 | 0.68 | 1.8 | 1.9 | 0.31 | 0.33
NES (GeneID 10763) | 4 | 0.58 | 1.8 | 2.25 | 0.3 | 0.09
